For 1 substance, binding results are on record in paper PMC8019017.

The chains behind the UniProt entries cited, without tags or fusion partners. Where a name states a change or a piece, a line headed by the entry shows the natural chain unless it says otherwise.
UniProt Q14703: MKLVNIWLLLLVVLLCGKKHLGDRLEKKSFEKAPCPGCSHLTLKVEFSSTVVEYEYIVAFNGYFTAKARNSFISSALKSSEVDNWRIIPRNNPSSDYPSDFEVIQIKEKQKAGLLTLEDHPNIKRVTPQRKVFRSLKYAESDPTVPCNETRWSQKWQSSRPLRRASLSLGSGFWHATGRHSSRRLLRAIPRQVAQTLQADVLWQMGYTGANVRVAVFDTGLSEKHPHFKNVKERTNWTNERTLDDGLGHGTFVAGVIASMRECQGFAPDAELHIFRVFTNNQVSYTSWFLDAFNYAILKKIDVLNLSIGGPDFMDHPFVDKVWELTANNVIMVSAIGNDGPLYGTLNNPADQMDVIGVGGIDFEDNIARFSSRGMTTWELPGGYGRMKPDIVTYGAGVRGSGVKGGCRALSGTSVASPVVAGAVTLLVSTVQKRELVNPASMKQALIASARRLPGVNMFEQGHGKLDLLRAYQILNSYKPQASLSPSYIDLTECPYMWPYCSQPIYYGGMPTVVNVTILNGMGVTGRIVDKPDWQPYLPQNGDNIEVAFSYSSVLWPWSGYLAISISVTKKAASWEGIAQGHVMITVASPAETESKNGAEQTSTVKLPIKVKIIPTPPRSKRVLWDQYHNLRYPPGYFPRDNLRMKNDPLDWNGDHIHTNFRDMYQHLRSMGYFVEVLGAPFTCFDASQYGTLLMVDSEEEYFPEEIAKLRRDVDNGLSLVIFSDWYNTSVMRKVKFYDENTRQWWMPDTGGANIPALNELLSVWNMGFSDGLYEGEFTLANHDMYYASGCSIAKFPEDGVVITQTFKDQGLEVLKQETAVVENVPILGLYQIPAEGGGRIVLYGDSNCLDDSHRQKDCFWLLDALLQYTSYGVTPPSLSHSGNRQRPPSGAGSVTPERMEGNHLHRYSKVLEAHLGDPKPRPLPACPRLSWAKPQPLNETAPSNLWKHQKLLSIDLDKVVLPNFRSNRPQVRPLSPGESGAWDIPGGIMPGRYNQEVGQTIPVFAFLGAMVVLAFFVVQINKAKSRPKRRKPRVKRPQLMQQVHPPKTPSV

These are yes or no findings as the source states them, for the method shown. In cells and extracts the contact can be indirect. These calls come from enrichment with a bait or labelling near it, and not all partners need be listed. Tags and fused reporters may be left off the sequences shown.

The target in this assay is T1, partner of site-1 protease (POST1) with a 3×Flag tag (human) (UniProt Q9H741).
T1 sequence: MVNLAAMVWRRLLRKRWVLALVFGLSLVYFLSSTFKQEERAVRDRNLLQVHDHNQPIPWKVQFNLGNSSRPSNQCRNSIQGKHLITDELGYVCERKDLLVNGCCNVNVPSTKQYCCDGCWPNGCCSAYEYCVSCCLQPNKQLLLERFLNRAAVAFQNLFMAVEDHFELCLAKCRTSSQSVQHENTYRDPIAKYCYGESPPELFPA
In words: affinity purification with mass spectrometry; lysates of HeLa/POST1-3×Flag cells in NP40 buffer (0.5% NP40 in PBS, 5 mmol/L EDTA), pre-cleared with protein A/G beads, anti-Flag beads 4 h at 4 °C, eluted with 0.1 mg/mL 3×Flag peptides, LC-MS; three independent experiments; control cells without POST1-3×Flag.

As for “site-1 protease (S1P), endogenous (from UniProt Q14703) (enzyme)”, the binding entry is recorded as “binds”.
